# Screen size: about 320,000 compounds; about 620 (0.19%) were called active. The shares of active, inactive and inconclusive entries below differ from those in the screen. Cut-off read from the data, not from the text of the source: active = activation above about 80%; inconclusive = between about 30% and that limit; inactive = weaker than that.
# Protein sequences, listed by entry. Tags and fused reporters are not part of them.
# UniProt Q8NER1, whole entry, looked up: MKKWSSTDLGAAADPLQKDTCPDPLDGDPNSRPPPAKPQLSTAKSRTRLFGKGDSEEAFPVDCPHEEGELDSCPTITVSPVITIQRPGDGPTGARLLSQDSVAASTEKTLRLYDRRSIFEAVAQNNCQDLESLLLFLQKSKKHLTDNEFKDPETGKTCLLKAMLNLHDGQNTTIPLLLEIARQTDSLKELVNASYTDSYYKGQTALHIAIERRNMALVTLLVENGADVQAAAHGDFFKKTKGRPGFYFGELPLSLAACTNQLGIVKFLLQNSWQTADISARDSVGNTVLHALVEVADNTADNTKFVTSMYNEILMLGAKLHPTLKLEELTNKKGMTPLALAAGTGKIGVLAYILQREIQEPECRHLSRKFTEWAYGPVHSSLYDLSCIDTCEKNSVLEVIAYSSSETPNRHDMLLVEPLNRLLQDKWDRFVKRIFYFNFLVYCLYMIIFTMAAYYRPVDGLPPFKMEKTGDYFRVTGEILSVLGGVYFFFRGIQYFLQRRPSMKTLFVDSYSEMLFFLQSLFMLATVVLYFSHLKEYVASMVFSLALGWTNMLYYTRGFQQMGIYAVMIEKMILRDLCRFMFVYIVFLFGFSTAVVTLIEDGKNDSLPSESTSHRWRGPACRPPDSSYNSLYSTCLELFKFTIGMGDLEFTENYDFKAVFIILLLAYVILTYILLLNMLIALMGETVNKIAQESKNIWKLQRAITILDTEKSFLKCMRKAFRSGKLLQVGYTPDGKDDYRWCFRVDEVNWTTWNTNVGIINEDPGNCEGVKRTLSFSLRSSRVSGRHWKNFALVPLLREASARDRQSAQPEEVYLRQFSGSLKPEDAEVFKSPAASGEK
# Target: Transient receptor potential cation channel subfamily V member 1 (Homo sapiens) (UniProt Q8NER1)
# Test: HTS Assay for Compounds that Act as Agonists of the Vanilloid Receptor 1; note: 0% is about no effect
# Settings: TRPV1-expressing cells, Fluo-8 calcium influx, agonist mode; at 8.33 µM, hits give high values
# Procedure, shortened: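 TRPV1-expressing cells were cultured overnight at 35.5C and loaded with Fluo-8 calcium dye for 40 to 90 min at room temperature. After a 10 s baseline, compound was added and calcium influx was read kinetically for 3 min (ex 480/em 520 nm).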
row,Compound,activation
1,Cc1ccc(OCC(O)Cn2c(=N)n(Cc3ccccc3)c3ccccc32)cc1 (stereo not given),inactive: 1.16%
2,CCc1ccccc1NC(=S)NC1CC2CCC(C1)N2Cc1ccco1 (stereo not given),inactive: 0.296%
3,COC(=O)CNC(=O)C1CCN(c2nc(C)cc(C)n2)CC1,inactive: 3.67%
4,N#Cc1cc2cc3c(cc2nc1SCC(=O)OC1CCCCC1)OCO3,inconclusive: 42.1%
5,COc1ccc(NC(=O)C=C(C)C)cc1Cl,inconclusive: 33.7%
6,CC1CN(C(=O)N2c3ccccc3Sc3ccccc32)CC(C)O1 (stereo not given),inconclusive: 32.3%
7,CC1CCCN(C(=O)c2ccc(-c3ccccc3Cl)o2)C1 (stereo not given),inconclusive: 63%
8,CCCCOC(=O)Nc1cc(C(=O)OC)ccc1C(=O)OC,inconclusive: 30.2%
9,Cc1nc2c(-c3ccccc3)cnn2c(N)c1-c1ccccc1,inactive: 4.09%
10,CSc1ccc(/C=N/NC(=O)c2ccc(O)cc2)cc1,inconclusive: 69.1%
11,CN1CCN(CCCNC(=O)c2cn(C3CCCCC3)c(=O)c3c2c2ccccc2n3C)CC1,inactive: 0.884%
12,Cc1cc2ccccc2n1CCNC(=O)C1CCCCC1,inconclusive: 62.9%
13,CCCCCCc1cc2cc(-c3nnc(-c4ccccc4)o3)c(=O)oc2cc1O,inconclusive: 64.1%
14,N#C/C(=C\Nc1ccccc1O)c1nc2ccccc2o1,inconclusive: 30.8%
15,COc1cccc(/C=N/Nc2nn3cnnc3c3ccccc23)c1,inactive: -5.73%
16,Cc1cc2ccccc2n1CCNC(=O)c1cccs1,inconclusive: 68.8%
17,CC(=O)Oc1ccccc1C1=NN(C(=O)/C=C/c2ccccc2)C(c2ccccc2)C1 (stereo not given),inconclusive: 33.3%
18,O=C(O)c1cc2c(cc1NC(=O)c1ccccc1OC(F)F)OCCCO2,inactive: 1.09%
19,CCCOC(=O)C1=C(C)NC2=C(C(=O)CC(C)(C)C2)C1c1cccnc1 (stereo not given),inconclusive: 34%
20,Cc1cc(C)c(OCC(=O)Nc2nnc(-c3ccco3)o2)c(C)c1,inactive: 1.13%
21,CC(C)(CO)Cc1cc(C(C)(C)C)c(O)c(C(C)(C)C)c1,inconclusive: 30.3%
22,Cc1nc(/C(N)=N/OC(=O)c2ccc(Cl)cc2)c(C(F)(F)F)o1,inactive: -2.99%
23,COc1ccc(CNC(=O)N2CCN(c3cccc(C)c3C)CC2)cc1OC,inconclusive: 74.6%

# Reprinted at random: 4 compounds from above, in no set order.
row,Compound,activation
5,COc1ccc(NC(=O)C=C(C)C)cc1Cl,inconclusive: 33.7%
6,CC1CN(C(=O)N2c3ccccc3Sc3ccccc32)CC(C)O1 (stereo not given),inconclusive: 32.3%
12,Cc1cc2ccccc2n1CCNC(=O)C1CCCCC1,inconclusive: 62.9%
22,Cc1nc(/C(N)=N/OC(=O)c2ccc(Cl)cc2)c(C(F)(F)F)o1,inactive: -2.99%

# More records follow.

row,Compound,activation
1,CCCn1c(=S)[nH]c2cc(C(=O)N(CCO)Cc3ccccc3)ccc2c1=O,inactive: -0.596%
2,Nc1nc(CSC(=S)N2CCOCC2)nc(Nc2ccccc2)n1,inconclusive: 59.2%
3,Cc1nc(N2CCN(c3ccccn3)CC2)c2c(C)c(C(=O)Nc3ccc(Br)cc3C)sc2n1,inactive: -2.29%
4,O=C(NCc1ccc(F)cc1)c1ccc(S(=O)(=O)N2CCCCC2)cc1,inconclusive: 43.4%
5,CCCC(NC(=O)c1ccccc1)c1nc2ccccc2n1Cc1ccc(C(=O)OC)o1 (stereo not given),inconclusive: 46.8%
6,CC[C@H](C)[C@@H](C(=O)NCCCCCCCCCCC(=O)N1CCN(C(=O)OC(C)(C)C)CC1)n1cc(CCCCCNC(=O)OC(C)(C)C)nn1,inactive: 4.42%
7,CCCCCCCN1C/C=C\C(c2ccc(OC)cc2)N(Cc2ccc(F)cc2)C(=O)[C@H]1Cc1ccccc1 (stereo not given in full),inactive: 0.682%
8,Cc1onc(-c2c(Cl)cccc2Cl)c1C(=O)N1CCc2ccccc21,inconclusive: 32%
9,Cc1nnc(N2CCCC(C(=O)Nc3cc(F)ccc3F)C2)c2nn(-c3ccccc3)c(C)c12 (stereo not given),inconclusive: 38.3%
10,COc1cccc(NC(=O)COc2ccc(Br)c(C)c2)c1,inconclusive: 30.3%
11,Cc1ccc(CC(=O)OC(C)C(=O)NC2CCCCC2C)cc1C (stereo not given),inconclusive: 38.2%
12,CCCc1nc2sc3ccccc3c(=O)c2c(=O)n1Cc1ccc(OC)cc1,inactive: 5.42%
13,COc1nc(N2CCOCC2)nc(C)c1[N+](=O)[O-],inactive: -1.01%
14,CCC(NC(=O)CCCc1ccccc1)c1ccccc1 (stereo not given),inconclusive: 35.1%
15,Cc1ccc(CNC(=O)c2cccc3c2C(=O)c2ccc(N4CCC(C)CC4)cc2S3(=O)=O)cc1,inconclusive: 74.7%
16,COc1ccc(C(=O)N2CC3(C)CC2CC(C)(C)C3)cc1 (stereo not given),inactive: -1.41%
17,CCCCNC(=O)[C@H](CSCc1ccccc1)N1Cc2ccccc2C1=O,inconclusive: 58.9%
18,Oc1ccc2nnc3c(Br)cnn3c2c1,inactive: 22.2%
19,Cc1cc(/C(N)=N/OC(=O)c2ccc(Cl)cc2)no1,inconclusive: 30.8%
20,O=C(Nc1cccc(C(F)(F)F)c1)c1ccc2nc(-c3ccco3)c(-c3ccco3)nc2c1,inactive: 0.191%
21,O=C(NCCc1ccc(F)cc1)c1ccc([N+](=O)[O-])cc1,inconclusive: 49.9%
22,O=C(Nc1ccc(OCC(=O)N2CCOCC2)cc1)Nc1cccc(Cl)c1,inactive: -0.21%
23,Cc1ccc(/C=C/C(=O)NC2CCCCCCC2)o1,inconclusive: 52%

row,Compound,activation
1,CC(=O)Nc1ccc(SC[C@H](CC(C)C)N2CCN(CC(C)C)CCC2=O)cc1,inconclusive: 35.4%
2,CCOC(=O)Cc1cc(=O)n2[nH]c(C)c(-c3ccc(Cl)cc3)c2n1,inactive: -1.88%
3,CC(C)c1ccc(NC2CCCN(C(=O)c3cc(C(C)C)nc(N)n3)C2)cc1 (stereo not given),inconclusive: 50.1%
4,Cc1ccc(S(=O)(=O)N(C)Cc2ccc(C(=O)N/N=C/c3ccc(OC(F)F)cc3OC(F)F)cc2)cc1,inactive: -3.7%
5,CCn1c(C(=O)N2CCc3ccccc3C2)cc2oc3ccccc3c21,inconclusive: 31.5%
6,O=C(NCc1ccc(F)cc1)C1CCN(c2cnccn2)CC1,inactive: 2.46%
7,CC(C)CSc1nc(N2CCOCC2)c2c(c1C#N)CC(C)(C)SC2,inconclusive: 72.1%
8,COc1ccccc1OCC(=O)N1CCCC(Nc2cccc(F)c2)C1 (stereo not given),inconclusive: 72.3%
9,O=C(Cc1cccc2ccccc12)N/N=C/c1ccncc1,inconclusive: 50.5%
10,CN(C)C(=O)c1ccc(NC(=O)COc2cccc3c2OC(C)(C)C3)cc1,inactive: -1.47%
11,CCCCCn1c(SCCCC)nc2c1c(=O)[nH]c(=O)n2C,inconclusive: 36.3%
12,O=C(CCSc1ccc(Cl)cc1)N1CCCCCC1,inconclusive: 30.3%
13,N#Cc1c(N)n(CCNC(=O)c2cccs2)c2nc3ccccc3nc12,inactive: 0.591%
14,COc1ccccc1CNC(=O)CCS(=O)(=O)Cc1ccc(C)cc1,inactive: 2.65%
15,CC(C)Cn1nc(NC(=O)C(C)(C)C)c2cc3ccccc3nc21,inconclusive: 51%
16,O=C(CSc1nc(-c2ccccc2)cc(C(F)(F)F)n1)NCc1cccs1,inconclusive: 54.9%
17,O=C(Nc1ccccc1)NC1CCN(Cc2ccccc2)CC1,inconclusive: 47.8%
18,CCn1ccnc1CN1CCc2c([nH]c3ccccc23)C1C1CCCCC1 (stereo not given),inconclusive: 31%
19,CC(=O)Oc1ccccc1N(C(C)=O)S(=O)(=O)c1ccc2ccccc2c1,inactive: 6.45%
20,O=C(Nc1ccccc1)C1C(c2ccccc2)C1(Cl)Cl (stereo not given),active: 83.6%
21,CCOC(=O)C1(Cc2cccc(F)c2)CCN(C(=O)C2CCC2)CC1,inconclusive: 47%
22,CCCCc1nc(NCCN2CCOCC2)c(C#N)c2c1COC(C)(C)C2,inconclusive: 46.4%
23,O=C(COc1ccccc1)NC(NC(=S)Nc1ccccc1O)C(Cl)(Cl)Cl (stereo not given),inconclusive: 32.9%

# For convenience, some entries already given:
row,Compound,activation
19,CCCOC(=O)C1=C(C)NC2=C(C(=O)CC(C)(C)C2)C1c1cccnc1 (stereo not given),inconclusive: 34%
20,Cc1cc(C)c(OCC(=O)Nc2nnc(-c3ccco3)o2)c(C)c1,inactive: 1.13%

# Next part:

row,Compound,activation
1,COc1ccc(NC(=O)c2ccc3nc(C)sc3c2)cc1,inactive: 8.13%
2,CN1CCN(C(=O)c2ccc3nc(-c4ccccc4)c(-c4ccccc4)nc3c2)CC1,inconclusive: 40.3%
3,Cc1ccc(N(Cc2ccccc2)C(=O)CN2C(=O)NC3(CCCC3)C2=O)cc1,inconclusive: 61%
4,COc1ccc(C(C)=O)cc1COc1ccccc1[N+](=O)[O-],inactive: 9.73%
5,Cc1ccc(C(=O)Nc2ccccc2N2CCCCC2)cc1,inconclusive: 35.8%
6,CCCc1cc(NCc2ccccn2)n2nc(C)c(-c3ccccc3)c2n1,inconclusive: 33.1%
7,COc1cccc(NC(=S)N(CCCN2CCOCC2)C(C)c2cc3cccc(OC)c3o2)c1 (stereo not given),inactive: -11.5%
8,COc1ccc(CC(=O)OCC(=O)N2CCN(S(=O)(=O)c3ccc(C)cc3C)CC2)cc1,inactive: 0.807%
9,Cc1onc(-c2ccccc2)c1C(=O)N1CCN(c2ncccc2C(F)(F)F)CC1,inconclusive: 47.3%
10,O=C(CN1CCN(c2nc(-c3ccc(F)cc3)cs2)CC1)NCc1ccc2c(c1)OCO2,inconclusive: 39.2%
11,CCOC(=O)c1cccnc1SCc1cc(=O)n2ccccc2n1,inactive: -0.669%
12,Cc1cccc(OCCNC(=S)NC(=O)c2cncc(Br)c2)c1,inactive: 26.1%
13,COc1ccc(S(=O)(=O)N(CC(=O)N2CCOCC2)Cc2ccccc2)cc1C,inconclusive: 30.2%
14,COc1cc(C)ccc1OCc1cc(C(=O)N2CCN(C3CCCCC3)CC2)no1,inactive: 9.57%
15,COCCN(CC(=O)NCC1CCCO1)C(=O)CCC(=O)Nc1cc(C)ccn1 (stereo not given),inactive: 1.93%
16,CCNC(=O)NCc1c(C)c(C)n(Cc2ccccc2)c1-n1cccc1,inconclusive: 57.6%
17,CS(=O)(=O)c1ccccc1-c1nnc(NC(=O)COc2ccc(Cl)cc2)o1,inactive: -1.96%
18,CCCN1C(=O)SC(CC(=O)Nc2ccc(C)cc2)C1=O (stereo not given),inconclusive: 32.2%
19,O=C(Nc1ccc(F)cc1)c1ccc2nsnc2c1,inconclusive: 67.9%
20,CCOC(=O)/C(=C\c1ccccc1)C(=O)c1cc(C(C)=O)c(Nc2ccccc2)s1,inconclusive: 60.9%
21,CCCCNC(=O)N1CCC(CCC(=O)N(C)Cc2ccccc2)CC1,inactive: -0.189%

# Another view of some results above.
row | Compound | activation
2 | CCc1ccccc1NC(=S)NC1CC2CCC(C1)N2Cc1ccco1 (stereo not given) | inactive: 0.296%
3 | COC(=O)CNC(=O)C1CCN(c2nc(C)cc(C)n2)CC1 | inactive: 3.67%

# Source: PubChem BioAssay AID540275 (National Center for Advancing Translational Sciences (NCATS), 2011)
